Laboratory results taken from the supplement of paper PMC10849652.
The other results are listed elsewhere or left out.

By UniProt entry, the sequences of proteins in these tests, tags left out. Where a name states a change or a piece, a line headed by the entry shows the natural chain unless it says otherwise.
UniProt Q9HAP2: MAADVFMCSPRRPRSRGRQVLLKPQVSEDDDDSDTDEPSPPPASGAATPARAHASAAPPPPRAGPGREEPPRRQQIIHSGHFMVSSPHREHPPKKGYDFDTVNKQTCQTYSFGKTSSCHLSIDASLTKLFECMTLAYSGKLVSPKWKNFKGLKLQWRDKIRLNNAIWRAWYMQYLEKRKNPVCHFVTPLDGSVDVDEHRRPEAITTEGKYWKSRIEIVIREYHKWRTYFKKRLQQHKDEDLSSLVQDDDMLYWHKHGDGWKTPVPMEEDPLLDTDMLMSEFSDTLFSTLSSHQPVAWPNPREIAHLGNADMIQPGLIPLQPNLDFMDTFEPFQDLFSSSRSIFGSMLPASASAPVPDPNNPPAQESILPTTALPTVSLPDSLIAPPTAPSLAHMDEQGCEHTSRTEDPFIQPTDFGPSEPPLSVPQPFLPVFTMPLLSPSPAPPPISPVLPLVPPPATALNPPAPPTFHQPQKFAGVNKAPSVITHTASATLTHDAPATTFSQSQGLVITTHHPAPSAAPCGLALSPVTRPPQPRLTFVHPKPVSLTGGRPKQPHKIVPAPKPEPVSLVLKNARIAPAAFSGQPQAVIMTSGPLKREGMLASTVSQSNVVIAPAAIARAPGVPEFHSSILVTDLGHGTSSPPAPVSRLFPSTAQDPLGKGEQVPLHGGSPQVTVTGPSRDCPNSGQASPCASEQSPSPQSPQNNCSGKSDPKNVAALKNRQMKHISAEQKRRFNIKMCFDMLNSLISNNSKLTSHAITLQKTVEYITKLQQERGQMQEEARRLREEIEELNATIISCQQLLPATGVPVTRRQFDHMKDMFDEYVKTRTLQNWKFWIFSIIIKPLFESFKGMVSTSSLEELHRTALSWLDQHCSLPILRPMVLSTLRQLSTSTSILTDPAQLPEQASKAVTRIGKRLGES
UniProt P14174: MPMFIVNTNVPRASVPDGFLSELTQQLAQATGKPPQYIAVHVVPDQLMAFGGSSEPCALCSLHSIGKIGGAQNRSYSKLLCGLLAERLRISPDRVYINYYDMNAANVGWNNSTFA
UniProt Q8N4V1: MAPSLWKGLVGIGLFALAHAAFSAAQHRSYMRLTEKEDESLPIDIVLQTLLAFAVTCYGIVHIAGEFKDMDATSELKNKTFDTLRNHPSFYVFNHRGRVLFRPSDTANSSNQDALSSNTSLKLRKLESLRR
UniProt Q96T76: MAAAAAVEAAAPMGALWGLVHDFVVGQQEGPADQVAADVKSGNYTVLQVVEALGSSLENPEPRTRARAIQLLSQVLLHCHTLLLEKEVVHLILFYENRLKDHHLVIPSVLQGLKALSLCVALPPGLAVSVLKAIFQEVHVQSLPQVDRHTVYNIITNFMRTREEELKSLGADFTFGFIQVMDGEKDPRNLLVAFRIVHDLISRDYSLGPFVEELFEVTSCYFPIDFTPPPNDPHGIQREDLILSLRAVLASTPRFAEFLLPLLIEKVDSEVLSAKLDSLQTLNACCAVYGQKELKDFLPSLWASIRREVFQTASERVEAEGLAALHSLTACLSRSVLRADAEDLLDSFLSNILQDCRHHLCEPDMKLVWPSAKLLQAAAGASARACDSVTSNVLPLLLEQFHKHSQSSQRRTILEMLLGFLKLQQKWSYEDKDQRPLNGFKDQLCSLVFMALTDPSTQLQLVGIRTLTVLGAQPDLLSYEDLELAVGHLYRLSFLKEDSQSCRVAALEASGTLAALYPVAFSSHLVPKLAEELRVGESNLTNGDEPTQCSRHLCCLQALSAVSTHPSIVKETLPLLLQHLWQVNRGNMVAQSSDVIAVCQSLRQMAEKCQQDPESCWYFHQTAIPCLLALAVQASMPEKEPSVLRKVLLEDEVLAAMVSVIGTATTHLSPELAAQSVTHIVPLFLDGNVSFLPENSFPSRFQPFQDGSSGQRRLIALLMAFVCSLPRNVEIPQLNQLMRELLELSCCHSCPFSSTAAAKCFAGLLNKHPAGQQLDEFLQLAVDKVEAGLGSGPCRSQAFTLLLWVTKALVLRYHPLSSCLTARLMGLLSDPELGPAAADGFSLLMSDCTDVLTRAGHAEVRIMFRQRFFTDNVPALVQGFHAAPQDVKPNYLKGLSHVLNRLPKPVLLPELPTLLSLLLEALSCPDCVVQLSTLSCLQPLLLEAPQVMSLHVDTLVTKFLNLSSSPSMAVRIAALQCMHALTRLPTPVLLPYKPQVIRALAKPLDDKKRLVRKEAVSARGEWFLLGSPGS
UniProt P51948: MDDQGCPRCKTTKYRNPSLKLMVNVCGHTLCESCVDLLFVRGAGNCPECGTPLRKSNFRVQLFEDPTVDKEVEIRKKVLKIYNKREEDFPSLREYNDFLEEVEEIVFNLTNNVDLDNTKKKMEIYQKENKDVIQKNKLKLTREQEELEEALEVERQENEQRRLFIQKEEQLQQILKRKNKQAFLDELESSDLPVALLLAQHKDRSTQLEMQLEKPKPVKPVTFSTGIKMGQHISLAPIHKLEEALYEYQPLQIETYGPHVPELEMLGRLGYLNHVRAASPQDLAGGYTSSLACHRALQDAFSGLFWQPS
UniProt Q9H081: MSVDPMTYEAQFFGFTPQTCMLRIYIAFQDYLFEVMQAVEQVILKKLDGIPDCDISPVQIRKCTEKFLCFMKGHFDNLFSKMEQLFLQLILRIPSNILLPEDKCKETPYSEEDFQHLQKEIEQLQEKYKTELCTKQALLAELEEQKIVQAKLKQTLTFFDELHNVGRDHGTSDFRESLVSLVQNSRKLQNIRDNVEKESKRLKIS
UniProt Q9H000: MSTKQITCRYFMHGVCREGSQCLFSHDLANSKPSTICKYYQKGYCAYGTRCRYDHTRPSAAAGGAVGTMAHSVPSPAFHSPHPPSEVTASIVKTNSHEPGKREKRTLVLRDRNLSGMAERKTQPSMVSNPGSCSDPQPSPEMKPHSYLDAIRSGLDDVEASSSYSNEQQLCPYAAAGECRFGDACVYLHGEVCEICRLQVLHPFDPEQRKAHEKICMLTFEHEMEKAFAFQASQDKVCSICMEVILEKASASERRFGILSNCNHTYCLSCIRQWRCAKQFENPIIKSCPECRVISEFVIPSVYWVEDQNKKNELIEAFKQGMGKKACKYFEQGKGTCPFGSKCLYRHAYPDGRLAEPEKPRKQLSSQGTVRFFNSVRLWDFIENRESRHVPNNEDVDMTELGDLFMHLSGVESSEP
UniProt Q8WV92, whole entry, looked up: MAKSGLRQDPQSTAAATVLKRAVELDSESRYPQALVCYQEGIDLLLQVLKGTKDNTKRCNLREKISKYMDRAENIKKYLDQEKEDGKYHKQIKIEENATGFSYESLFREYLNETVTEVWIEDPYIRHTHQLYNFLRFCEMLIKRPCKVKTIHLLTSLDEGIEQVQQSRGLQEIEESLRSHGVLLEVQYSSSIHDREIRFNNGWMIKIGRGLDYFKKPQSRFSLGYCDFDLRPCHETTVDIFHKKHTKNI
UniProt Q9BRT3: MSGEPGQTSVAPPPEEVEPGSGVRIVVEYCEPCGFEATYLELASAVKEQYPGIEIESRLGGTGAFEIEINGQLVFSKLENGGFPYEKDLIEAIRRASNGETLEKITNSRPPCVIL
UniProt Q13064: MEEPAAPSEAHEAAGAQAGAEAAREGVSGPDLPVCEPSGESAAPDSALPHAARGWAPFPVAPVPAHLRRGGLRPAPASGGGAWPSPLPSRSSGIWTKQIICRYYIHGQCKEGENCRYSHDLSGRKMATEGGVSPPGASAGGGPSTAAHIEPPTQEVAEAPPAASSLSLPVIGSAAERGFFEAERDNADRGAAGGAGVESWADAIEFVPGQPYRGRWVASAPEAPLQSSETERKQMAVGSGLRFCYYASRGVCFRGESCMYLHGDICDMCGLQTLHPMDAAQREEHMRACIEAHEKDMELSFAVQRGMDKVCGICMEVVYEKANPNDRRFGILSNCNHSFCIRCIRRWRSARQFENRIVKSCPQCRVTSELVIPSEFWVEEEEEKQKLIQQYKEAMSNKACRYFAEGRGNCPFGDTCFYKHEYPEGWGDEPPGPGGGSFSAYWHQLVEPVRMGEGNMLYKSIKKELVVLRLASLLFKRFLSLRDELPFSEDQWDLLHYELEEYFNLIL
UniProt Q9BPX6: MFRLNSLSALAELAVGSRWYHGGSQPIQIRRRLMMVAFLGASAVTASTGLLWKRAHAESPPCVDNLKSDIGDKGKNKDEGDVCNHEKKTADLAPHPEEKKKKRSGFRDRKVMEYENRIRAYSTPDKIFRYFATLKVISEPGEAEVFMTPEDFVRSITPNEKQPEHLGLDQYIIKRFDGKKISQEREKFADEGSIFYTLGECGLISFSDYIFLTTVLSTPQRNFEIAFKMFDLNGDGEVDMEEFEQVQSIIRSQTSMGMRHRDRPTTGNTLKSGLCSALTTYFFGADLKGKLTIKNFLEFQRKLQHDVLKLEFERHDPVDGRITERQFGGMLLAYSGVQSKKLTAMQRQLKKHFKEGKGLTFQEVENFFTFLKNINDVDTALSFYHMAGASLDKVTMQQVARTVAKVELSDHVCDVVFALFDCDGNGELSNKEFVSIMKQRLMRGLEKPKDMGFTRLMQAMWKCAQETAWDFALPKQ
UniProt Q96BX8: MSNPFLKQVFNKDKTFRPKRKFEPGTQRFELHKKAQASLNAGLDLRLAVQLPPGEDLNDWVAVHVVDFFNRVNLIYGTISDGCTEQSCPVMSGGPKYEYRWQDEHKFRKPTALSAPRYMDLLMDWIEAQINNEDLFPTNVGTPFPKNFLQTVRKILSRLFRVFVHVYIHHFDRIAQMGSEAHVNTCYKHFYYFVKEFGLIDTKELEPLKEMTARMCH
UniProt Q9BVC4, whole entry, looked up: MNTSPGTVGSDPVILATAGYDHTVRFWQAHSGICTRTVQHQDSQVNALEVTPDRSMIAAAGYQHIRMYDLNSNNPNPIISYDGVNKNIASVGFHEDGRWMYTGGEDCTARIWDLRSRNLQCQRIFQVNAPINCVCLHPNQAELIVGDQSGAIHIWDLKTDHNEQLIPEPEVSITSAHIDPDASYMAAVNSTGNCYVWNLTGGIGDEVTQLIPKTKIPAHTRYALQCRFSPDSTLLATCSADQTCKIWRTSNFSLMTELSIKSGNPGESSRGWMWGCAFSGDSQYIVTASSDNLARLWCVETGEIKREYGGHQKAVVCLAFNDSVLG
UniProt Q9BWT6: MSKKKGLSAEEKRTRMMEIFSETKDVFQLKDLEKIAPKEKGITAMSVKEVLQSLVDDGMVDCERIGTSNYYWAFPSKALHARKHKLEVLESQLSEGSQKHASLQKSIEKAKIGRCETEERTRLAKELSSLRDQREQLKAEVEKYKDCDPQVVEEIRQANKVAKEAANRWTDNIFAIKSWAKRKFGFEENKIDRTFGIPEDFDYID
UniProt Q9Y605: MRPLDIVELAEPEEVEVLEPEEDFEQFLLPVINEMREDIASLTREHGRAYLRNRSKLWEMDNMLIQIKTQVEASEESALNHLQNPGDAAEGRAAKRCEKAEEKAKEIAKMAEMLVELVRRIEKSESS
UniProt Q5XKP0: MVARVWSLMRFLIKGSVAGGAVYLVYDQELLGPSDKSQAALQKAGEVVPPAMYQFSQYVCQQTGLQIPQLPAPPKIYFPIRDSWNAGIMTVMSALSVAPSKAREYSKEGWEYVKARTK
UniProt Q14149: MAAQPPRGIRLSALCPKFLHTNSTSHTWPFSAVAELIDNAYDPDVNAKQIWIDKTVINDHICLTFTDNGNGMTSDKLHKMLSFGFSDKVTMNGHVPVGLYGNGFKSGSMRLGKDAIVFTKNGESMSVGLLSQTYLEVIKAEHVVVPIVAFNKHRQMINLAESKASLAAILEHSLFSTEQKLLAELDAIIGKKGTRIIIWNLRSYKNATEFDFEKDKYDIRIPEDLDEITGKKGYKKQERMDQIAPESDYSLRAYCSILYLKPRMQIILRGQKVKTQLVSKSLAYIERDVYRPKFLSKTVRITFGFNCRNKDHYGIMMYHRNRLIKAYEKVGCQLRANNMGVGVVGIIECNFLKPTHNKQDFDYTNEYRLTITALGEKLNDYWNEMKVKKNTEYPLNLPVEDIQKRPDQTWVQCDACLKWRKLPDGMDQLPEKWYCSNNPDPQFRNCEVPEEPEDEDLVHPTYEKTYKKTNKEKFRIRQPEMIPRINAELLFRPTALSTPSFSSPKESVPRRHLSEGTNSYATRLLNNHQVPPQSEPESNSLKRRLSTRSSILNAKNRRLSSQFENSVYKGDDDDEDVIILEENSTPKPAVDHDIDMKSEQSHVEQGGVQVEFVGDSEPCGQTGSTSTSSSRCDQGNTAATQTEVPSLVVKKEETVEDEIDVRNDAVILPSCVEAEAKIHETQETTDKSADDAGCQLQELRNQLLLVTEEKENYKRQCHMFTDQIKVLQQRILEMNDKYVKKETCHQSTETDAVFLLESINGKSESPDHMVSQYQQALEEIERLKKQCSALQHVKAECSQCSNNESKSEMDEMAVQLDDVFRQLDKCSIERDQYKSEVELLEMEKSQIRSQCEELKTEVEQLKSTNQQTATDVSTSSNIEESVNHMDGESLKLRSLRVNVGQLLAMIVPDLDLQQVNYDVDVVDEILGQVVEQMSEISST

These targets were tested with CNC(=O)c1ccc(Nc2ncc(C(F)(F)F)c(NCc3nccnc3N(C)S(C)(=O)=O)n2)cc1 [defactinib] (assay: log2 fold change, soluble protein after heating vs DMSO (PISA); higher = thermal stabilisation; K562 cells, 10 uM, 30 min; active = over 0.2 and 3.5 SD of the protein, either way, in both replicates (recomputed)).
Procedure, shortened: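 K562 cells at 2×10^6 cells/mL were exposed to 10 μM compound for 30 min, then aliquots were heated for 3 min across 48°C-58°C, pooled, and extracted in PBS containing 0.5% NP-40 at 4°C. The supernatant after 21,000xg for 90 min was taken as soluble protein and measured by TMTpro 16plex LC-MS/MS with channel sums equalised. Thermal stability is reported relative to control samples, with values from duplicates. Fold changes are given on a log2 scale.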
MRPL47 (UniProt Q9HD33) was tested, and the log2 fold change was inactive: 0.151. With MLXIP (UniProt Q9HAP2) the log2 fold change was inactive: -0.262. In the case of MRPL4 (UniProt Q9BYD3), the log2 fold change was inactive: 0.182. MIF (UniProt P14174) was tested, and the log2 fold change was inactive: -0.019. With MMGT1 (UniProt Q8N4V1) the log2 fold change was inactive: 0.121. With MMS19 isoform 8 (UniProt Q96T76) the log2 fold change was inactive: -0.127. MNAT1 (UniProt P51948) was tested, and the log2 fold change was inactive: -0.03. MRPL53 (UniProt Q96EL3) was tested, and the log2 fold change was inactive: 0.182. With MIS12 (UniProt Q9H081) the log2 fold change was inactive: -0.143. In the case of MRPL37 (UniProt Q9BZE1), the log2 fold change was inactive: 0.074. For MKRN2 (UniProt Q9H000), the log2 fold change was inactive: -0.049. MITD1 (UniProt Q8WV92) was tested, and the log2 fold change was inactive: 0.133. With MIEN1 (UniProt Q9BRT3) the log2 fold change was inactive: -0.067. With MKRN3 (UniProt Q13064) the log2 fold change was inactive: -0.075. In the case of MICU1 isoform 3 (UniProt Q9BPX6), the log2 fold change was inactive: 0.172. In the case of MOB3A (UniProt Q96BX8), the log2 fold change was inactive: -0.06. MLST8 (UniProt Q9BVC4) was tested, and the log2 fold change was inactive: -0.092. In the case of MND1 (UniProt Q9BWT6), the log2 fold change was inactive: -0.021. With MRFAP1 (UniProt Q9Y605) the log2 fold change was inactive: -0.051. For MRPL34 (UniProt Q9BQ48), the log2 fold change was inactive: 0.138. In the case of MICOS13 (UniProt Q5XKP0), the log2 fold change was inactive: -0.07. For MRPL46 (UniProt Q9H2W6), the log2 fold change was inactive: 0.043. For MORC3 (UniProt Q14149), the log2 fold change was inactive: -0.184.
